{"source": "paper PMC5716539", "about": "“The acute glucose lowering effect of specific GPR120 activation in mice is mainly driven by glucagon-like peptide 1” (PLoS ONE, 2017)", "origin": "cited, not measured here", "system": "Caco-2 cells", "details": "cited from earlier work", "data": [{"smiles": "Cc1ccc(-c2ccc(F)cc2COc2ccc(CCC(=O)O)cc2)cc1", "note": "[TUG-891]", "values": [{"measurement": "β-arrestin-2 recruitment in Caco-2 cells", "result": "recruited β-arrestin-2"}]}]}
